PubChem BioAssay AID1259314 | Drosophila RNAi Screening Center, 2017

Assay: 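Genes whose knock-down alters cell survival under toxic manganese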 (primary screen)
System: Drosophila S2R+ cells
Reagent: long dsRNA against Drosophila genes
Timing: 5 days (4 days knock-down, then 1 day metal exposure)
Challenge: manganese chloride added to 15 mM for 24 hours
Measured: 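Cellular ATP measured by luciferase light, scaled to the plate mean, averaged across replicates and z-scored over plates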
Scale: mean ATP z-score: higher = more ATP than the plate average, more viable cells under manganese
Rule for the call: 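a mean ATP z-score past 1.5 in either direction is called active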
Meaning of the calls: active = strong ATP change, up or down; inactive = no strong ATP change
Here is one part, drawn at random, of about 3,100 reagents tested. Of all reagents, 289 (9.3%) got an active call. 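Active includes both higher and lower ATP than plate average; check the z-score sign for direction.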 Not stated in the record: the amount of reagent.

For caps [DRSC11333], what does the deposit list?
mean ATP z-score: -0.844; call: inactive

With caps [DRSC22224], how do the results read?
mean ATP z-score: 0.786; call: inactive

With PGRP-SB1 [DRSC11090], how do the results read?
mean ATP z-score: -0.741; call: inactive

What did the screen give for Mics1 [DRSC12537]?
mean ATP z-score: -1.21; call: inactive

How did the screen score Mics1 [DRSC39452]?
mean ATP z-score: -1.42; call: inactive

With CG6927 [DRSC18407], how do the results read?
mean ATP z-score: -0.276; call: inactive

What is on record for CG6927 [DRSC39725]?
mean ATP z-score: -0.202; call: inactive

For Ulp1 [DRSC19339], how do the results read?
mean ATP z-score: -1.95; call: active

For Ulp1 [DRSC39704], what was measured?
mean ATP z-score: -1.72; call: active

What did the screen give for CG31729 [DRSC02524]?
mean ATP z-score: -0.719; call: inactive

For CG31729 [DRSC02946], what does the deposit list?
mean ATP z-score: -0.053; call: inactive

Which result is listed for CG31729 [DRSC25841]?
mean ATP z-score: -0.195; call: inactive

What did the screen give for CG4324 [DRSC04462]?
mean ATP z-score: -1.31; call: inactive

With CG4324 [DRSC27530], what was measured?
mean ATP z-score: -0.503; call: inactive

How did the screen score robo2 [DRSC00377]?
mean ATP z-score: 1.66; call: active

With robo2 [DRSC00686], how do the results read?
mean ATP z-score: -1.03; call: inactive

How did the screen score alpha-Cat [DRSC39510]?
mean ATP z-score: -0.37; call: inactive

For CG4301 [DRSC19886], what was measured?
mean ATP z-score: -0.0181; call: inactive

With CG4301 [DRSC39420], what does the deposit list?
mean ATP z-score: 0.108; call: inactive
